# Assay results from patent US8282910B2, “Composition for skin or hair” (Shiseido Company Ltd., priority 2007, dated 2012).
# At least one compound was matched to its structure with a doubt left.
# Experiment: UV absorption spectrum
# Type: physicochemical
# Details: ethanol, 10 ppm
smiles,measurement,setting,value
CCCCC(CC)CCOC(=O)/C(=C\c1ccc(OC)cc1)C(=O)OCC(CC)CCCC (centres unmarked) [di(2-ethylhexyl)-4-methoxybenzalmalonate],absorbance,at maximum absorption,0.56
same,wavelength of maximum absorption,,310 nm
